Laboratory results: article PMC4449203
Results are given in words; binding and its absence hold for the method and conditions named. In cells and extracts the contact can be indirect. Some binding calls cover weakened binding; strength is not graded here. Sequences can lack the tags named with a protein.

By UniProt entry, the sequences of proteins in these tests, tags left out. Residues count along the entry.
UniProt P22607, residues 23-806: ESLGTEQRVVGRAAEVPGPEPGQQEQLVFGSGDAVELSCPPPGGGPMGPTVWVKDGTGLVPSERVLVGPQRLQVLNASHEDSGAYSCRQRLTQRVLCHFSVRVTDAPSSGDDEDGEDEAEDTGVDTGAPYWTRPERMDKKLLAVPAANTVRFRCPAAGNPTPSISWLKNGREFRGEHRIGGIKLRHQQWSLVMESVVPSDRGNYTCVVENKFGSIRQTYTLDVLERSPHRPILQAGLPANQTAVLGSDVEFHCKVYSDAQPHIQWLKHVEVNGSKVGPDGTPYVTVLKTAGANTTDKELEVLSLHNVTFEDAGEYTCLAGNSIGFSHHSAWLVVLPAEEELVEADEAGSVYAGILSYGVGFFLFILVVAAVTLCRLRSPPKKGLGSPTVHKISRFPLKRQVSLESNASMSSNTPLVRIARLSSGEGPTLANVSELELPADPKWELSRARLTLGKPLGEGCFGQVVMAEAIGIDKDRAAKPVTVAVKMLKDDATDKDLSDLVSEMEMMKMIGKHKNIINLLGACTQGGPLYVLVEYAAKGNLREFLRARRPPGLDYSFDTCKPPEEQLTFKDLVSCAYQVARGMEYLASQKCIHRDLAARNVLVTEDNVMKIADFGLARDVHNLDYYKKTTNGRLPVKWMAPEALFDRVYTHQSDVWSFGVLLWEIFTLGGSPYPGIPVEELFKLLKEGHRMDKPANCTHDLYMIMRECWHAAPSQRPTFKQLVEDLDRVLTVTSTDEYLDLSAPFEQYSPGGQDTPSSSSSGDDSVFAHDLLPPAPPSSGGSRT
UniProt P11362, residues 22-822: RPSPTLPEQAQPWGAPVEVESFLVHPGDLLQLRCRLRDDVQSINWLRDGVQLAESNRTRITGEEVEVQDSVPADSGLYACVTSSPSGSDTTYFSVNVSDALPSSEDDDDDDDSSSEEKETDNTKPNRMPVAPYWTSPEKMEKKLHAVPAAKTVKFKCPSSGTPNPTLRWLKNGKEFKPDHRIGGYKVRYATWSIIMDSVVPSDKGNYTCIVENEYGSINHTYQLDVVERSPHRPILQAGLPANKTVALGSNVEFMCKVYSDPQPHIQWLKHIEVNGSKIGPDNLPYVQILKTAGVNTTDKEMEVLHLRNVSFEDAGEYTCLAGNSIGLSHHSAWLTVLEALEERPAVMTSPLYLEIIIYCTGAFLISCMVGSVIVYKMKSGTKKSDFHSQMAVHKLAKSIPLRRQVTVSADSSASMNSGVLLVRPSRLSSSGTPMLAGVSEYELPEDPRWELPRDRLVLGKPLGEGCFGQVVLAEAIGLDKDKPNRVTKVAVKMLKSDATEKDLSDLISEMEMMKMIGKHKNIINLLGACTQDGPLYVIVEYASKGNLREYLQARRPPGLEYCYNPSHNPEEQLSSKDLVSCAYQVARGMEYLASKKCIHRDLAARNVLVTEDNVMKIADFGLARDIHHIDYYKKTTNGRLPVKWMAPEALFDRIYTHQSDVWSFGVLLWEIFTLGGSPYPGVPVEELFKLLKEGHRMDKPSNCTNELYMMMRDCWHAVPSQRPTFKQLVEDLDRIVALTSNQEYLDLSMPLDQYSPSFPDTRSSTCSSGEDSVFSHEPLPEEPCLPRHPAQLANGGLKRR
UniProt P29317, residues 24-976: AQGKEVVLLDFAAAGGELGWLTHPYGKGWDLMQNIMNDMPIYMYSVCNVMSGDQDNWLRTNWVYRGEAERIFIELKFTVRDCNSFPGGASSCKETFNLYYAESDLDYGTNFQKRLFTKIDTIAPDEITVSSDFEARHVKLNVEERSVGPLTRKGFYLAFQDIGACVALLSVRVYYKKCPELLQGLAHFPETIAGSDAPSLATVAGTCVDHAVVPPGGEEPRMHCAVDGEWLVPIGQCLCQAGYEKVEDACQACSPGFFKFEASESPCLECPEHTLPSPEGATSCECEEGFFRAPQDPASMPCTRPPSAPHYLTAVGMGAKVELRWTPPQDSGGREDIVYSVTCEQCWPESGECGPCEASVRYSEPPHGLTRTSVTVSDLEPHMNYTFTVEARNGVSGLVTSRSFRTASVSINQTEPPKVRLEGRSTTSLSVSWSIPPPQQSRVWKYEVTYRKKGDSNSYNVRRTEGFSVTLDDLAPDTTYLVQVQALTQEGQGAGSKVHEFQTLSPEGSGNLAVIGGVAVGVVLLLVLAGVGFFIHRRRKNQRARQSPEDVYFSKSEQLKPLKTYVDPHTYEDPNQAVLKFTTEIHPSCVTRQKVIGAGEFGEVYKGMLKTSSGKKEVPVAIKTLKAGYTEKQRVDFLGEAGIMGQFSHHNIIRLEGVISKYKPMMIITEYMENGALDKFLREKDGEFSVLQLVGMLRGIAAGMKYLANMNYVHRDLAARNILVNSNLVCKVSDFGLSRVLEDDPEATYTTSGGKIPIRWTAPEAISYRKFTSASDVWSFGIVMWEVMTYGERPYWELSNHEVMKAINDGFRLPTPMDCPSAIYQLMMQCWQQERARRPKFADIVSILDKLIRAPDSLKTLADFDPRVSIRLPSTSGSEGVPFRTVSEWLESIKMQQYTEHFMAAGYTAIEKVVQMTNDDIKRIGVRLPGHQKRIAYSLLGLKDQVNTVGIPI
UniProt Q15375, residues 28-998: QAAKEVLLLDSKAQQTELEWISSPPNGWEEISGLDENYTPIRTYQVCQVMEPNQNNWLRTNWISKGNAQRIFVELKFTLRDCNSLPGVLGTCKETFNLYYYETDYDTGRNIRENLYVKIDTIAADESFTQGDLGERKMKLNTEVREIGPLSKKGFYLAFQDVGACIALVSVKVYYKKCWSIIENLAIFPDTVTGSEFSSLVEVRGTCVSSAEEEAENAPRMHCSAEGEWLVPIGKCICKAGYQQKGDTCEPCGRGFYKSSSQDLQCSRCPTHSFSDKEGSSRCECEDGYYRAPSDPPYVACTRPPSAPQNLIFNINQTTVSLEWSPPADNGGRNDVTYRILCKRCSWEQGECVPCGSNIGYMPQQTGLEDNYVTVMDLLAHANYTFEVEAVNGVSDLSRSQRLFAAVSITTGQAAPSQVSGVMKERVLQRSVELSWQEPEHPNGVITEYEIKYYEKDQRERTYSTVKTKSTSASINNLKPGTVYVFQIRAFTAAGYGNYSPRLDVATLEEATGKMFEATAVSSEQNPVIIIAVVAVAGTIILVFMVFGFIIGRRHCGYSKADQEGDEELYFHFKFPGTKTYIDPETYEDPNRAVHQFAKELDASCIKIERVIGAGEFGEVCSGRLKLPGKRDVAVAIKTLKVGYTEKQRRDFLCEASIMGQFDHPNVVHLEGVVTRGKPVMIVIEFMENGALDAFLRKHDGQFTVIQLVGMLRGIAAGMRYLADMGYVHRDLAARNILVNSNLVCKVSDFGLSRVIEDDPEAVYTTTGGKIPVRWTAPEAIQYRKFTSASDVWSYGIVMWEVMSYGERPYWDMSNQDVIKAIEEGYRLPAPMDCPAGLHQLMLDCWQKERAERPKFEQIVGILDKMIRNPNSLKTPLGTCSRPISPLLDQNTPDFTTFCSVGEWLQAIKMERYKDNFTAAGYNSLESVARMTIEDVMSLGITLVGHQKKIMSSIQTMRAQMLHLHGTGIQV
UniProt P54756, residues 25-1037: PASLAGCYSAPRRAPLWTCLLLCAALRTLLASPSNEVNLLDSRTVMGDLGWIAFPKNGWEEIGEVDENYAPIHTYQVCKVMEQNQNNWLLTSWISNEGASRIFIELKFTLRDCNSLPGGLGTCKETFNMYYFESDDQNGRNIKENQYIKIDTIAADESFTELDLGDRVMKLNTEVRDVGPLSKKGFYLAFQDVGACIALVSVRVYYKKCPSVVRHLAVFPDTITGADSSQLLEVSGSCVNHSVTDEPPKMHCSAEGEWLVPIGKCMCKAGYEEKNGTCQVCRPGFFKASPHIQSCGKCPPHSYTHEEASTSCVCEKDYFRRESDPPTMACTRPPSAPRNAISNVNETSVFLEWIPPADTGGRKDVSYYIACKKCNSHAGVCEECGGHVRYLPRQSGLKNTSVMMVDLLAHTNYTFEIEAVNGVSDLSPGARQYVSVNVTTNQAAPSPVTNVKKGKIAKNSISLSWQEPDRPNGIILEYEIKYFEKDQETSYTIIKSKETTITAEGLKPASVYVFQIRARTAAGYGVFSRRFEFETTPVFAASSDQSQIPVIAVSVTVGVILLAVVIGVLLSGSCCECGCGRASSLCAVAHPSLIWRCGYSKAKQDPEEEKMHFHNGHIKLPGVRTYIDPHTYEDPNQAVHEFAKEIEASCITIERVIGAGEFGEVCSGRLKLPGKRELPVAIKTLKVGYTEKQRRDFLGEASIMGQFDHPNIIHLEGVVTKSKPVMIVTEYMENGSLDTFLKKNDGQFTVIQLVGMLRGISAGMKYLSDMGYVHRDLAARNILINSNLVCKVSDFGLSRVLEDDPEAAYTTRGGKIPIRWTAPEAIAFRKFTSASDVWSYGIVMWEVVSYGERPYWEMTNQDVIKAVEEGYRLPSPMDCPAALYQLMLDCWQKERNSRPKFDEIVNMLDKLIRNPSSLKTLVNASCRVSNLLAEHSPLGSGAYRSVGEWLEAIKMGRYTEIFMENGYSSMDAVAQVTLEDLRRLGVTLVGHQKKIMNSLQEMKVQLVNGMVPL

Experiments:
[1] = target: FGFR3-HA (UniProt P22607); experiment: co-IP; FGFR1-HA or FGFR3-HA co-expressed with Flag-tagged EphA and increasing doses of ΔJM,KD-EGFP in HEK293T cells; immunoprecipitation, SDS-PAGE and immunoblotting with the antibodies shown in the figure
[2] = target: FGFR1-HA (UniProt P11362); experiment: as above

Row | Molecule | binding [1] | binding [2]
1 | Flag-tagged EphA2 (from UniProt P29317 24-976) (receptor) | binds | binds
2 | Flag-tagged EphA7 (from UniProt Q15375 28-998) (receptor) | binds | binds

Second part, the molecule after the results:

Row | binding [1] | binding [2] | Molecule
3 | binds | binds | Flag-tagged EphA5 (from UniProt P54756 25-1037) (receptor)
4 | binds | binds | Flag-tagged EphA1 (receptor, UniProt P21709 26-976) KEVTLMDTSKAQGELGWLLDPPKDGWSEQQQILNGTPLYMYQDCPMQGRRDTDHWLRSNWIYRGEEASRVHVELQFTVRDCKSFPGGAGPLGCKETFNLLYMESDQDVGIQLRRPLFQKVTTVAADQSFTIRDLVSGSVKLNVERCSLGRLTRRGLYLAFHNPGACVALVSVRVFYQRCPETLNGLAQFPDTLPGPAGLVEVAGTCLPHARASPRPSGAPRMHCSPDGEWLVPVGRCHCEPGYEEGGSGEACVACPSGSYRMDMDTPHCLTCPQQSTAESEGATICTCESGHYRAPGEGPQVACTGPPSAPRNLSFSASGTQLSLRWEPPADTGGRQDVRYSVRCSQCQGTAQDGGPCQPCGVGVHFSPGARGLTTPAVHVNGLEPYANYTFNVEAQNGVSGLGSSGHASTSVSISMGHAESLSGLSLRLVKKEPRQLELTWAGSRPRSPGANLTYELHVLNQDEERYQMVLEPRVLLTELQPDTTYIVRVRMLTPLGPGPFSPDHEFRTSPPVSRGLTGGEIVAVIFGLLLGAALLLGILVFRSRRAQRQRQQRQRDRATDVDREDKLWLKPYVDLQAYEDPAQGALDFTRELDPAWLMVDTVIGEGEFGEVYRGTLRLPSQDCKTVAIKTLKDTSPGGQWWNFLREATIMGQFSHPHILHLEGVVTKRKPIMIITEFMENGALDAFLREREDQLVPGQLVAMLQGIASGMNYLSNHNYVHRDLAARNILVNQNLCCKVSDFGLTRLLDDFDGTYETQGGKIPIRWTAPEAIAHRIFTTASDVWSFGIVMWEVLSFGDKPYGEMSNQEVMKSIEDGYRLPPPVDCPAPLYELMKNCWAYDRARRPHFQKLQAHLEQLLANPHSLRTIANFDPRMTLRLPSLSGSDGIPYRTVSEWLESIRMKRYILHFHSAGLDTMECVLELTAEDLTQMGITLPGHQKRILCSIQGFKD
5 | binds | binds | Flag-tagged EphA3 (receptor, UniProt P29320 21-983) ELIPQPSNEVNLLDSKTIQGELGWISYPSHGWEEISGVDEHYTPIRTYQVCNVMDHSQNNWLRTNWVPRNSAQKIYVELKFTLRDCNSIPLVLGTCKETFNLYYMESDDDHGVKFREHQFTKIDTIAADESFTQMDLGDRILKLNTEIREVGPVNKKGFYLAFQDVGACVALVSVRVYFKKCPFTVKNLAMFPDTVPMDSQSLVEVRGSCVNNSKEEDPPRMYCSTEGEWLVPIGKCSCNAGYEERGFMCQACRPGFYKALDGNMKCAKCPPHSSTQEDGSMNCRCENNYFRADKDPPSMACTRPPSSPRNVISNINETSVILDWSWPLDTGGRKDVTFNIICKKCGWNIKQCEPCSPNVRFLPRQFGLTNTTVTVTDLLAHTNYTFEIDAVNGVSELSSPPRQFAAVSITTNQAAPSPVLTIKKDRTSRNSISLSWQEPEHPNGIILDYEVKYYEKQEQETSYTILRARGTNVTISSLKPDTIYVFQIRARTAAGYGTNSRKFEFETSPDSFSISGESSQVVMIAISAAVAIILLTVVIYVLIGRFCGYKSKHGADEKRLHFGNGHLKLPGLRTYVDPHTYEDPTQAVHEFAKELDATNISIDKVVGAGEFGEVCSGRLKLPSKKEISVAIKTLKVGYTEKQRRDFLGEASIMGQFDHPNIIRLEGVVTKSKPVMIVTEYMENGSLDSFLRKHDAQFTVIQLVGMLRGIASGMKYLSDMGYVHRDLAARNILINSNLVCKVSDFGLSRVLEDDPEAAYTTRGGKIPIRWTSPEAIAYRKFTSASDVWSYGIVLWEVMSYGERPYWEMSNQDVIKAVDEGYRLPPPMDCPAALYQLMLDCWQKDRNNRPKFEQIVSILDKLIRNPGSLKIITSAAARPSNLLLDQSNVDITTFRTTGDWLNGVWTAHCKEIFTGVEYSSCDTIAKISTDDMKKVGVTVVGPQKKIISSIKALETQSKNGPVPV
